Assay results: PubChem BioAssay AID493014 (National Center for Advancing Translational Sciences (NCATS), 2011)
Some of the results follow. The main result of the screen is listed elsewhere. These columns were measured beside it and carry no call. Compounds called inactive in the main read-out are mostly missing here. Words in brackets tell the shape of the fitted curve; partial curves, single points and poor fits give uncertain potencies.

Assay: qHTS Assay to Find Inhibitors of Chronic Active B-Cell Receptor Signaling
Conditions: ABC-DLBCL IkBa-CBG/CBR reporter, luminescence ratio (green luciferase fused to IkBa over red control in TMD8 lymphoma cells), 4 h
Summary of the method: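 Compounds up to 46 uM were incubated four hours with TMD8 cells whose green CBG68 luciferase is fused to IkappaBalpha; red CBR luminescence normalised the signal, and concentration-effect curves were fitted to fusion, red and ratio data.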

[1] = measured here: CBR red luminescence, cell number
[2] = measured here: IkBa-CBG green luminescence

COc1cccc2c1nc(C)c1cc(C)oc12
AC50 [1]: 29.1 µM [rising, single point]

Cc1ccccc1NC(=O)CSc1nc(N)c(C#N)c(-c2cccs2)c1C#N
AC50 [1]: 0.231 µM [falling, partial curve, poor fit]

Cc1[nH]n(-c2ccccc2)c(=O)c1/C=N/n1c(C)nc2ccccc2c1=O
AC50 [1]: 35.5 µM [falling, partial curve, poor fit]

CC(C)n1cc(/C=N/Nc2ccc(Cl)c(C(=O)O)c2)c2ccccc21
AC50 [1]: 7.94 µM [falling, partial curve]

COc1ccc(C(=O)COC(=O)[C@H](C)Nc2ccc(C(F)(F)F)cc2[N+](=O)[O-])cc1
AC50 [1]: 10.3 µM [rising, partial curve, poor fit]

Cc1c(CCOC(=O)c2cc([N+](=O)[O-])cc([N+](=O)[O-])c2)sc[n+]1CCCCS(=O)(=O)[O-]
AC50 [1]: 3.98 µM [rising, full curve, poor fit]

CCOC(=O)c1cc(CNC(=O)c2c(C)oc3c2CCCC3)c(C)o1
AC50 [1]: 35.5 µM [falling, single point]

Cc1ccc(CNC(=O)C(=O)c2cn(CC(=O)N3CCOCC3)c3ccccc23)cc1
AC50 [1]: 1.41 µM [falling, full curve, poor fit]

O=C(Nc1ccccc1)c1ccc(-n2cnnn2)cc1
AC50 [1]: 12.6 µM [falling, partial curve, poor fit]

Cc1[nH]c2ccccc2c1C(=O)COC(=O)c1ccccc1O
AC50 [1]: 6.51 µM [rising, single point]

COCCN1CN(S(=O)(=O)c2cccc(Cl)c2)c2nc3ccccc3nc21
AC50 [1]: 2.82 µM [falling, full curve]

O=C(NNC(=O)c1ccc2ncccc2c1)c1ccc(Cl)cc1
AC50 [1]: 35.5 µM [falling, single point]

FC(F)(F)c1cc(-c2ccco2)nc(NCCc2ccccc2)n1
AC50 [1]: 2.51 µM [rising, single point]

C#CCOc1ccccc1C(N)=O
AC50 [1]: 6.31 µM [falling, partial curve, poor fit]

c1ccc2cc(OCc3nc4ccccc4[nH]3)ccc2c1
AC50 [1]: 2.59 µM [falling, full curve]

O=C(c1ccco1)N1CCN(c2c(-c3ccccc3)c3cc(Cl)ccc3[nH]c2=O)CC1
AC50 [1]: 18.4 µM [falling, single point]

Cc1c(Cl)cccc1NC(=O)CCCN1C(=O)CCC1=O
AC50 [1]: 29.1 µM [rising, single point]

C=C(C)c1cccc(C(C)(C)NC(=O)Nc2ccc(C)cn2)c1
AC50 [1]: 32.6 µM [falling, single point]

C/C(=N\NC(=S)NCCc1ccccc1)c1cccs1
AC50 [1]: 2.06 µM [rising, full curve, poor fit]

O=C(Oc1cc(=O)oc2ccccc12)c1ccco1
AC50 [1]: 1.12 µM [falling, full curve, poor fit]

CC(C)Cc1nnc(NC(=O)CN2C(=O)C3CCCCC3C2=O)s1 (stereo not drawn)
AC50 [1]: 32.6 µM [rising, single point]

COc1cccc(-c2cc(C(=O)NCc3ccco3)no2)c1
AC50 [1]: 14.6 µM [falling, partial curve, poor fit]

O=C(CCCN1CCOCC1)c1ccc2c(c1)OCCO2
AC50 [1]: 1.41 µM [rising, partial curve, poor fit]

Cc1ccc(C2C3=C(CC(C)(C)CC3=O)Nc3onc(C)c32)cc1 (stereo not drawn)
AC50 [1]: 32.6 µM [falling, single point]

Cc1cc(NC(=O)CSc2ccccn2)cc(NC(=O)CSc2ccccn2)c1
AC50 [1]: 25.1 µM [rising, single point]

COCCSc1ccccc1C(=O)NCc1cccnc1
AC50 [1]: 6.31 µM [falling, single point]

CCOC(=O)c1ccc(Oc2nc(NC)nc(SC)n2)cc1
AC50 [1]: 6.51 µM [rising, single point]

C=CC[n+]1c(/C=C/c2ccc(OC(C)=O)c(OC)c2)ccc2ccccc21
AC50 [1]: 28.2 µM [falling, single point]

COc1ccc(C(=O)Nc2ccc(NC(=O)c3cccc(OC)c3)cn2)cc1
AC50 [1]: 22.4 µM [rising, single point]

O=[N+]([O-])c1cc(C(F)(F)F)cc([N+](=O)[O-])c1Sc1n[nH]c(C(F)(F)F)n1
AC50 [1]: 22.4 µM [falling, partial curve, poor fit]
AC50 [2]: 7.08 µM [rising, full curve, poor fit]

O=C1CCC/C1=C/Nc1ccc(Cl)cc1
AC50 [1]: 12.6 µM [rising, partial curve, poor fit]

N#C/C(=C(/O)COC(=O)c1ccccc1O)c1nc2ccccc2s1
AC50 [1]: 14.1 µM [falling, single point]

COc1ccc(C(=O)NC2CCN(C(=S)Nc3ccc(C)c(C)c3)CC2)cc1
AC50 [1]: 16.4 µM [rising, single point]

COc1ccc(N=Cc2nc(-c3ccccc3)oc2OC(=O)c2ccccc2)cc1
AC50 [1]: 13 µM [falling, partial curve]

O=C(/C=C/c1ccco1)NC(=S)Nc1cccc(-c2nc3ccccc3o2)c1
AC50 [1]: 31.6 µM [rising, single point]
AC50 [2]: 12.6 µM [falling, partial curve]

CCCCC(=O)N=c1sc2cc([N+](=O)[O-])ccc2n1C
AC50 [1]: 11.2 µM [rising, partial curve, poor fit]

Cc1ccccc1OCC(=O)N/N=C/c1ccccn1
AC50 [1]: 35.5 µM [falling, single point]

O=C(O)CSc1nc2c(cnn2-c2ccccc2)c(=O)n1-c1ccc(Br)cc1
AC50 [1]: 16.4 µM [rising, partial curve, poor fit]

C=CCNC(=O)CCCOc1cc(C)ccc1C
AC50 [1]: 29.1 µM [falling, single point]

COC(=O)c1sc(-c2ccc(Cl)cc2)cc1NC(=O)COCC(=O)O
AC50 [1]: 14.1 µM [rising, single point]

CC(C)n1c(SCC(N)=O)nc2c1c(=O)n(C)c(=O)n2C
AC50 [1]: 17.8 µM [rising, partial curve, poor fit]

COc1ccc(N2CCN(C(=S)Nc3ccccc3)CC2)cc1
AC50 [1]: 11.2 µM [rising, partial curve, poor fit]

COc1cccc(-c2cc(C(=O)Nc3ccc(OC)c(OC)c3)no2)c1
AC50 [1]: 1.78 µM [falling, full curve]

Cc1ccc(NC(=O)Cc2ccc([N+](=O)[O-])cc2)c(Br)c1
AC50 [1]: 1.16 µM [rising, partial curve, poor fit]

O=C(O)c1cccc(Nc2nc(Nc3ccccc3)nc(N3CCCC3)n2)c1
AC50 [1]: 1.78 µM [falling, partial curve]

CN(C)CCCNc1ncnc2c1cnn2-c1ccccc1
AC50 [1]: 0.651 µM [rising, full curve, poor fit]

CCCc1nc(SCC(=O)c2ccccc2)c2c(=O)n(C)c(=O)n(C)c2n1
AC50 [1]: 0.82 µM [rising, full curve]

COc1cc(NC(=O)COc2ccccc2)c(OC)cc1NC(C)=O
AC50 [1]: 14.1 µM [falling, single point]

CC(=O)c1cccc(N/C=C\c2nnnn2-c2ccc(F)cc2)c1
AC50 [1]: 23.1 µM [rising, partial curve, poor fit]

Cc1c(/C=C/C(=O)c2cccs2)cnn1C
AC50 [1]: 29.1 µM [falling, single point]

COc1ccc(C(=O)C2CCCN(Cc3ccc(C#CCCO)cc3)C2)cc1F (stereo not drawn)
AC50 [2]: 7.08 µM [rising, partial curve, poor fit]

CC(=O)c1cccc(NC(=O)CSc2nnc3ccc(-c4ccc(C)cc4)nn23)c1
AC50 [1]: 35.5 µM [rising, single point]

COCc1cc(/C=N\NC(=O)Cc2ccc(Cl)cc2)ccc1OC
AC50 [1]: 2.59 µM [rising, full curve]

CCn1nc(NC(=O)c2ccncc2)c2cc3ccccc3nc21
AC50 [1]: 18.4 µM [falling, single point]
AC50 [2]: 18.4 µM [rising, partial curve, poor fit]

Cc1ccc2nc(SCC(=O)N3CCOCC3)[nH]c2c1
AC50 [1]: 1.64 µM [rising, partial curve, poor fit]

O=C(Nc1ccc(Cl)cc1)OCc1ccccn1
AC50 [1]: 14.6 µM [falling, single point]

CCN(CC)S(=O)(=O)c1cc(NC(=O)COC(=O)CCC(=O)c2cccs2)ccc1C
AC50 [1]: 3.16 µM [rising, single point]

N#Cc1cc([N+](=O)[O-])ccc1NC(=O)COC(=O)C12CC3CC(CC(C3)C1)C2
AC50 [1]: 3.98 µM [rising, partial curve]

COc1ccc(OCC(=O)Nc2c3c(nn2C(C)(C)C)CSC3)cc1
AC50 [1]: 25.1 µM [falling, single point]

COc1ccc(Nc2nnc(-c3ccc(O)cc3)c3ccccc23)cc1C(N)=O
AC50 [1]: 15.8 µM [falling, partial curve, poor fit]

Cc1ccc(C(=O)Oc2cccc(NC(=O)c3ccco3)c2)cc1S(=O)(=O)N1CCC(C)CC1
AC50 [1]: 20.6 µM [falling, partial curve]

CNC(=S)Nc1cc2oc3ccccc3c2cc1OC
AC50 [1]: 15.8 µM [rising, partial curve, poor fit]

CCn1c(-c2csc(C(C)C)c2)n[nH]c1=S
AC50 [1]: 20.6 µM [rising, single point]

COc1ccc(NC(=S)N/N=C/c2ccc(F)c(F)c2)cc1
AC50 [1]: 35.5 µM [rising, single point]
AC50 [2]: 35.5 µM [falling, partial curve, poor fit]
